Data taken from the supplement of paper PMC6411743.
± gives the standard deviation of the averaged measurements. The list shows a part of the results, in another mix than the full data.

Sequences of proteins named here, by UniProt entry; tags and fusion partners are left off. A change or cut given only in a name is not applied to a line headed by its entry.
UniProt Q14651: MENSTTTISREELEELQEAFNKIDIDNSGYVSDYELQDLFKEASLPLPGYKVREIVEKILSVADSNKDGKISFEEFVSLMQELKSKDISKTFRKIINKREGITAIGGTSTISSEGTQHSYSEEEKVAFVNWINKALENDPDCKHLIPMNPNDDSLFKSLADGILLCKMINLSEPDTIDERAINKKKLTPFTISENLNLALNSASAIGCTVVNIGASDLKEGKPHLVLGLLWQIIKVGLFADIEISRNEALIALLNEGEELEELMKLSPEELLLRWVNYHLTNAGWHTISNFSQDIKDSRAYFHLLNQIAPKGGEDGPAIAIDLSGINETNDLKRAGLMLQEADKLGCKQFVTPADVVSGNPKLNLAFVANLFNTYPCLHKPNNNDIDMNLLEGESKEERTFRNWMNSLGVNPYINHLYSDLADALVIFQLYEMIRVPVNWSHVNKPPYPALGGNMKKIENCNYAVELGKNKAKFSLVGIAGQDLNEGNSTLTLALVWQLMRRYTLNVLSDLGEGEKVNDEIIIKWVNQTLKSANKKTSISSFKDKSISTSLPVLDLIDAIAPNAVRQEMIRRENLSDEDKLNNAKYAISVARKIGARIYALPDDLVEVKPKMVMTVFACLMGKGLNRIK
UniProt Q13426: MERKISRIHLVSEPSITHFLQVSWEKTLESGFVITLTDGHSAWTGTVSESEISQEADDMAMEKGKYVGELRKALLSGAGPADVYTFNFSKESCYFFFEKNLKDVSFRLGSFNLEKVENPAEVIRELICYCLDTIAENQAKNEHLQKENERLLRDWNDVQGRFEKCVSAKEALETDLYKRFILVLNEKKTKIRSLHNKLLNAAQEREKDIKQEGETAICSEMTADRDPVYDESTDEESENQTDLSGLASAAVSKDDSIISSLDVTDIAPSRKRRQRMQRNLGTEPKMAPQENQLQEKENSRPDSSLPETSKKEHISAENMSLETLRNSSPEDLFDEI
UniProt Q13325: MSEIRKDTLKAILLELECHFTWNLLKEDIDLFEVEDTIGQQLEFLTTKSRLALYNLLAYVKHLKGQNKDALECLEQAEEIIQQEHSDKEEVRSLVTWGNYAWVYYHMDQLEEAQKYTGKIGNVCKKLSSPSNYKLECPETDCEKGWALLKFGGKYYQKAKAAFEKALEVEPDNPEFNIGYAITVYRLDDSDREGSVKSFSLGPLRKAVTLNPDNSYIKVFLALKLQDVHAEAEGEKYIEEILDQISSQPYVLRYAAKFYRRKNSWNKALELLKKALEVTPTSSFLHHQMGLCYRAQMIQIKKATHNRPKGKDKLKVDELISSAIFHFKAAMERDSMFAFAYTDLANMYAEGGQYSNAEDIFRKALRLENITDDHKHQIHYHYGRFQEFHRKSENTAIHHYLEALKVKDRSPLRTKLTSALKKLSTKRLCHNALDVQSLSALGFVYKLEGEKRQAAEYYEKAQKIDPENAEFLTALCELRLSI
UniProt Q12797: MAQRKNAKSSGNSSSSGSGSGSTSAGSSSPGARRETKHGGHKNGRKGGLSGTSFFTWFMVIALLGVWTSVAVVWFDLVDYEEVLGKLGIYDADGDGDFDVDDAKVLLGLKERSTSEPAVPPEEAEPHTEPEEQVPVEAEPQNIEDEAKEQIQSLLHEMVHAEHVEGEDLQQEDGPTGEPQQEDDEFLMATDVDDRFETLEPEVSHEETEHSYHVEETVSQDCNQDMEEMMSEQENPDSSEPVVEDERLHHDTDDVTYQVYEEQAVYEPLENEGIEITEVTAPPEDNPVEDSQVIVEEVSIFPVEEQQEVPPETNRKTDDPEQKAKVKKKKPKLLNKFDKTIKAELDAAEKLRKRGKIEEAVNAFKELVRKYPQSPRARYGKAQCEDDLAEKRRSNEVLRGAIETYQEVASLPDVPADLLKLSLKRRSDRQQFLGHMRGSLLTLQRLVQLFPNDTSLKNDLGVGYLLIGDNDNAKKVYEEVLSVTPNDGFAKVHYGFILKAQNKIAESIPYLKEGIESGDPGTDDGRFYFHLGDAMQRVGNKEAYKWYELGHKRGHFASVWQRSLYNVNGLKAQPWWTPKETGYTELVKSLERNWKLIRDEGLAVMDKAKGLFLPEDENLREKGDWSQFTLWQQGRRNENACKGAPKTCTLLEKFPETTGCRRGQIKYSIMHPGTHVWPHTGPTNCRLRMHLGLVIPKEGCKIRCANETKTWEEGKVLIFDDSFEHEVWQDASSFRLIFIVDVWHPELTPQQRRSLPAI
UniProt Q14562: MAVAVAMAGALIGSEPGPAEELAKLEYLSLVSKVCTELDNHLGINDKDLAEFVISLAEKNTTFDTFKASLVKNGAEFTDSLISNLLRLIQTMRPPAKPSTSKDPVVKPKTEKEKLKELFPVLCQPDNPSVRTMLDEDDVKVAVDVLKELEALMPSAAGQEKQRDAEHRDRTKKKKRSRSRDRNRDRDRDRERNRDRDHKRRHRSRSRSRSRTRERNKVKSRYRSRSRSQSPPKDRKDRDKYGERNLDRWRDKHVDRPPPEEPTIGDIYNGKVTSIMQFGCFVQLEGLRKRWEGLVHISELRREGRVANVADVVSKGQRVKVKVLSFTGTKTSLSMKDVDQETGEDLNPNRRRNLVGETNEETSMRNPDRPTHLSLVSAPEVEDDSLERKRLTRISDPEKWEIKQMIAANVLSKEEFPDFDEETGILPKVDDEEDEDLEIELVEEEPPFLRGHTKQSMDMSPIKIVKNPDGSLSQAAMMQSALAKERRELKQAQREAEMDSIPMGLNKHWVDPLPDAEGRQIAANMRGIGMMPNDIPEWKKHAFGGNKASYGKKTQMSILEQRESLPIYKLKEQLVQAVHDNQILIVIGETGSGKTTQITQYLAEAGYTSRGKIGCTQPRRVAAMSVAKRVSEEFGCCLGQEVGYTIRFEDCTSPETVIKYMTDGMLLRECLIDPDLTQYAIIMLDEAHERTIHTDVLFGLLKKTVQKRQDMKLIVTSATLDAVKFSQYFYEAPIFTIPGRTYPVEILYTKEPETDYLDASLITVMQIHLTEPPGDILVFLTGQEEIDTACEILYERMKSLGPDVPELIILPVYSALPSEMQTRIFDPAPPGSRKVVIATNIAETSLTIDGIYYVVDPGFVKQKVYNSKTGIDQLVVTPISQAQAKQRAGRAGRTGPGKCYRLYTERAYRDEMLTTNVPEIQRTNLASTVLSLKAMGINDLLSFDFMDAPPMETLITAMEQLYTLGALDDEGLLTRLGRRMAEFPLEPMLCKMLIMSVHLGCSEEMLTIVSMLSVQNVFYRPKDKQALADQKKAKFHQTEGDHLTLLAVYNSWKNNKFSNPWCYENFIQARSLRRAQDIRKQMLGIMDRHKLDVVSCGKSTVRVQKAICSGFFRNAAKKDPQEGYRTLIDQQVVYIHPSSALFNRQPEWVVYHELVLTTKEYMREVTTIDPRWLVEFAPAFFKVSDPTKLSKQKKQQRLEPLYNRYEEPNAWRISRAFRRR
UniProt Q13404: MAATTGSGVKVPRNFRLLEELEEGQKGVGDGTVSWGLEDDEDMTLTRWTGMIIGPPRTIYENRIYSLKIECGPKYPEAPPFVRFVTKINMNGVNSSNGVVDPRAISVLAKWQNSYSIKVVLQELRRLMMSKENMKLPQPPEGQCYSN
UniProt Q15027: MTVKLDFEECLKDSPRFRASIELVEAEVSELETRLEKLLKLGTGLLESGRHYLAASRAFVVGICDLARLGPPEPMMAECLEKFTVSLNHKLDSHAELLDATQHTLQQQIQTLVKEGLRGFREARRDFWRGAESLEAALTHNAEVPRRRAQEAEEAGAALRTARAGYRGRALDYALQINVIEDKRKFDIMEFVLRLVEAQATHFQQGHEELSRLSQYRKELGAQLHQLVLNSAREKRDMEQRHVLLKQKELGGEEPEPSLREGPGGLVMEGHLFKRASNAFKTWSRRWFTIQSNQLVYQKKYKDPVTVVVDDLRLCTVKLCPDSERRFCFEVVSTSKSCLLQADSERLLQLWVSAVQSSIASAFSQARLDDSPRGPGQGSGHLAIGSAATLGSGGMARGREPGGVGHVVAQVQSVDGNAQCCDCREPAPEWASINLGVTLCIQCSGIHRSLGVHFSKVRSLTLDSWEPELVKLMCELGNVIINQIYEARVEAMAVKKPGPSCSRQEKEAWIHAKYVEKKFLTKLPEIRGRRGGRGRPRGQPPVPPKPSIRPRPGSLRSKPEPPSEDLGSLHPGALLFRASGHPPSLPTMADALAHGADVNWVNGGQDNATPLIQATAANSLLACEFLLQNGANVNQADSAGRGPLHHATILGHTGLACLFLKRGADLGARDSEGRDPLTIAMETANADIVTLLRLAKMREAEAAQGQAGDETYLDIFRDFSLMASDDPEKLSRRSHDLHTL
UniProt Q13588: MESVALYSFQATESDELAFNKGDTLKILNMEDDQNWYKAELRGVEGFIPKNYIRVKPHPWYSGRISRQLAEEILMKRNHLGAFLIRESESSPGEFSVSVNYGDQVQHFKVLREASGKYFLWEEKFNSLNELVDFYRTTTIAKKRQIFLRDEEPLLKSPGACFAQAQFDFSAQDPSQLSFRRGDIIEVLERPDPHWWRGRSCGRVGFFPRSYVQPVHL
UniProt Q10471: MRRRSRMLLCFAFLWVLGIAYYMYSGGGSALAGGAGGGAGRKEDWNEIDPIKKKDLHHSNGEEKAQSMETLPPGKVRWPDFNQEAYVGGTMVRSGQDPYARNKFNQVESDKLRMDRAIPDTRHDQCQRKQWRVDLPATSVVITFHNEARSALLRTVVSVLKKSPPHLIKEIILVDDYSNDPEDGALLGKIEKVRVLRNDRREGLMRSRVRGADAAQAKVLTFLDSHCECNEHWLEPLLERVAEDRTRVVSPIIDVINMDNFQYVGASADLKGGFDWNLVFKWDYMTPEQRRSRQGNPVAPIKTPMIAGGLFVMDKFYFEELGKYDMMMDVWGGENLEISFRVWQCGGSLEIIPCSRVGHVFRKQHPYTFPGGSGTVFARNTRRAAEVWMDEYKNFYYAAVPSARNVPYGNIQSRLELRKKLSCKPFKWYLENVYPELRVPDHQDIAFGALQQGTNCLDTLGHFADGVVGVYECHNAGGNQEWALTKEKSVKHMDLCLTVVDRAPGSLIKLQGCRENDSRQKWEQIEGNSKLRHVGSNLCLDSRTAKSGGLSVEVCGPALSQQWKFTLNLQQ
UniProt Q13769: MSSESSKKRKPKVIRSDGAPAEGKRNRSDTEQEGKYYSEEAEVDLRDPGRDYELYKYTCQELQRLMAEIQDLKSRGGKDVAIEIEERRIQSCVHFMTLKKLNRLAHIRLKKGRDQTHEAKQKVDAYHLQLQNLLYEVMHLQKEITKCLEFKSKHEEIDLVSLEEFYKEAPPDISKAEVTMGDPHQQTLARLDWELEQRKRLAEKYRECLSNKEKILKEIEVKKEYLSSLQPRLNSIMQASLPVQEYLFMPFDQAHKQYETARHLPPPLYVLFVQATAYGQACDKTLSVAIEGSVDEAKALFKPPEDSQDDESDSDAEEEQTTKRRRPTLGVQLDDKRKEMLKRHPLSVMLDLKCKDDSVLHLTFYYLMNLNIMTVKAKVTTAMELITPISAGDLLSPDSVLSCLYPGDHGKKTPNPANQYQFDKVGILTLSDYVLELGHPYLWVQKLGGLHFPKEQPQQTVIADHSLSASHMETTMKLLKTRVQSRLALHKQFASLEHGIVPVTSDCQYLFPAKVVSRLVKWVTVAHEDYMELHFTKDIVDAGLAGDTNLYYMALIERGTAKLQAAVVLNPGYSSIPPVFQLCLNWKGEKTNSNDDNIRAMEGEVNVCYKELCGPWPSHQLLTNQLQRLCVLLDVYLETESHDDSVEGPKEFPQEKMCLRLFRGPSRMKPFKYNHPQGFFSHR
UniProt Q14814: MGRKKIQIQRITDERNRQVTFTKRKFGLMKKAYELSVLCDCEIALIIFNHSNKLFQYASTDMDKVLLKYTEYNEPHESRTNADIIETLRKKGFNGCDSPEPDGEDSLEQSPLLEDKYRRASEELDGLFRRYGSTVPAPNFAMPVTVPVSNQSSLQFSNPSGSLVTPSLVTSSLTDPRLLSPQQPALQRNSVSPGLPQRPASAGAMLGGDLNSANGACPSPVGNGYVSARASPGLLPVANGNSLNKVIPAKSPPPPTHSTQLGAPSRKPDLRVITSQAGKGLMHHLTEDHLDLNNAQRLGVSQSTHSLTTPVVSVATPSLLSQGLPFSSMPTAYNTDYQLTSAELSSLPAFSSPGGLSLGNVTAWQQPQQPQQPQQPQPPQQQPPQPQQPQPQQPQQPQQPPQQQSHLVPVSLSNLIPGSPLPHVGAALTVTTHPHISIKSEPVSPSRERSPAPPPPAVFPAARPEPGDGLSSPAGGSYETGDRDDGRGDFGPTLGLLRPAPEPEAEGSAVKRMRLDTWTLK

Compound: Nc1ncnc2c1ncn2[C@@H]1O[C@H](COP(=O)(O)OP(=O)(O)NP(=O)(O)O)[C@@H](O)[C@H]1O [adenylyl imidodiphosphate]
Test: NP40-soluble protein abundance relative to vehicle (solubility fold change) (ratio); higher = more soluble protein in presence of AMP-PNP
Outline: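 Crude Jurkat lysate, prepared by Dounce homogenisation, was exposed to eight concentrations from 0.1 to 10 mM for 10 min at room temperature and then 3 min at 37 °C. Solubilisation used 0.8% NP40 with benzonase for 60 min at 4 °C, followed by ultracentrifugation and TMT labelling of the supernatant for LC-MS/MS. After vsn normalisation of intensities, each value is the fold change against the detergent-processed vehicle within each replicate, across three independent experiments.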

Target	NP40-soluble protein abundance (concentration: 1mM)	NP40-soluble protein abundance (concentration: 2mM)	NP40-soluble protein abundance (concentration: 4mM)	NP40-soluble protein abundance (concentration: 6mM)	NP40-soluble protein abundance (concentration: 8mM)	NP40-soluble protein abundance (concentration: 10mM)
PLS1 (UniProt Q14651)	1.04 ± 0.052	1.03 ± 0.041	1.05 ± 0.068	1.11 ± 0.041	1.08 ± 0.047	1.08 ± 0.034
UniProt Q14139 and related entries	0.974 ± 0.022	0.96 ± 0.013	0.977 ± 0.016	0.977 ± 0.04	0.97 ± 0.049	0.948 ± 0.021
XRCC4 (UniProt Q13426)	1.1 ± 0.069	1.12 ± 0.061	1.15 ± 0.1	1.24 ± 0.043	1.24 ± 0.068	1.27 ± 0.1
UniProt Q13555-2|Q13555-8|Q13555-9|A0A0A0MT11|Q13555 and related entries	0.955 ± 0.068	0.903 ± 0.045	0.899 ± 0.069	0.879 ± 0.05	0.867 ± 0.045	0.87 ± 0.067
IFIT5 (UniProt Q13325)	0.967 ± 0.044	0.975 ± 0.054	0.962 ± 0.057	0.995 ± 0.056	1.01 ± 0.071	0.995 ± 0.044
UniProt Q12797 and related entries	0.974 ± 0.029	1 ± 0.081	1 ± 0.031	1.04 ± 0.058	1.03 ± 0.011	1.07 ± 0.044
UniProt Q14562	1.05 ± 0.027	1.04 ± 0.037	1.08 ± 0.03	1.04 ± 0.044	1.09 ± 0.049	1.09 ± 0.061
UBE2V1 (UniProt Q13404)	0.951 ± 0.073	0.958 ± 0.07	1.01 ± 0.089	1.14 ± 0.21	1.17 ± 0.14	1.18 ± 0.15
ACAP1 (UniProt Q15027)	0.977 ± 0.064	0.9326 ± 0.0073	1 ± 0.051	1.02 ± 0.083	1.02 ± 0.09	1 ± 0.045
SNW1 (UniProt Q13573)	1.05 ± 0.026	1.11 ± 0.051	1.06 ± 0.022	1.06 ± 0.051	1.02 ± 0.028	1.08 ± 0.042
GRAP (UniProt Q13588)	0.968 ± 0.026	0.901 ± 0.098	0.988 ± 0.037	0.947 ± 0.018	0.987 ± 0.037	0.963 ± 0.038
GALNT2 (UniProt Q10471)	0.961 ± 0.023	0.939 ± 0.044	0.951 ± 0.014	0.959 ± 0.02	0.957 ± 0.011	0.954 ± 0.021
THOC5 (UniProt Q13769)	1.36 ± 0.17	1.42 ± 0.23	1.65 ± 0.35	1.84 ± 0.54	2.03 ± 0.65	2.16 ± 0.88
UniProt Q13740 and related entries	1.02 ± 0.03	1.08 ± 0.07	1.01 ± 0.048	1.02 ± 0.013	1.01 ± 0.017	1 ± 0.03
UniProt Q14814 and related entries	0.98 ± 0.03	1.04 ± 0.073	0.982 ± 0.062	0.959 ± 0.015	0.946 ± 0.021	0.945 ± 0.048

Taken from the listing (2 entries):
Target	NP40-soluble protein abundance (concentration: 1mM)	NP40-soluble protein abundance (concentration: 2mM)	NP40-soluble protein abundance (concentration: 4mM)	NP40-soluble protein abundance (concentration: 6mM)	NP40-soluble protein abundance (concentration: 8mM)	NP40-soluble protein abundance (concentration: 10mM)
IFIT5 (UniProt Q13325)	0.967 ± 0.044	0.975 ± 0.054	0.962 ± 0.057	0.995 ± 0.056	1.01 ± 0.071	0.995 ± 0.044
UniProt Q12797 and related entries	0.974 ± 0.029	1 ± 0.081	1 ± 0.031	1.04 ± 0.058	1.03 ± 0.011	1.07 ± 0.044
